# Measurements published in PMC10912661.
# Amino acid sequences for entries named in this document (tags omitted). Residues count along the entry.
# UniProt Q99YA0, residues 169-294: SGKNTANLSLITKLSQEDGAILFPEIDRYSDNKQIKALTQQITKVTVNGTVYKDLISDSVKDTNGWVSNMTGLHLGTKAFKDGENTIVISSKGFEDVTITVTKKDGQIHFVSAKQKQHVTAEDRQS
# No constants are given. Whether binding was seen depends on the method and setting.
# Target: hemoglobin-interacting domain 2 (HID2) of Shr, residues 169-294, wild type (Streptococcus pyogenes) (UniProt Q99YA0)
# Assay: SEC; Hiload 26/60 Superdex-75, 20 mM Tris, 200 mM NaCl pH 8.0; last step of the purification of HID2; both purified
substance,measurement,value
"hemoglobin-interacting domain 2 (HID2) of Shr, residues 169-294, wild type (from UniProt Q99YA0 169-294) (domain or fragment)",binding,no binding
